Results are given in words; binding and its absence hold for the method and conditions named. For some assays here: Binding seen in cells or lysates may run through a third protein. Some binding calls cover weakened binding; strength is not graded here.
Tests used:
[1] = target: cytoplasmic domain of human sortilin (K779-E831) in fusion with LexA (human) (UniProt Q99523); assay: two-hybrid; one-by-one tests of bait (pB27) and prey plasmids, spot plated on -Leu/-Trp/-His plates with 3-AT; plasmids without inserts as negative controls
[2] = target: sortilin-cd deletion mutant cd 1-27 (K779-D805) (human) (UniProt Q99523); assay: as above
[3] = target: sortilin-cd S15A (Ser793 to Ala), yeast two-hybrid bait (human) (UniProt Q99523); assay: as above
[4] = target: cytoplasmic domain of human sortilin (K779-E831) in fusion with LexA (human) (UniProt Q99523); assay: two-hybrid; library screen: sortilin-cd bait (pB27, LexA) in yeast L40GAL4 mated with an adult human brain random-primed cDNA library in Y187; selection on -Leu/-Trp/-His
[5] = target: GST-tagged PAK1 (Y270-H545) (human) (UniProt Q13153); assay: pull-down; GST fusion protein mixed with Triton X-100 lysate of transfected cells or human brain overnight at 4°C, captured on glutathione-Sepharose 4B, washed in 0.4 M NaCl buffer, Western blot; only the target purified
[6] = target: GST-tagged VHS domain of GGA2 (M1-L167) (human) (UniProt Q9UJY4); assay: as above

Sequences of proteins named here, by UniProt entry; tags and fusion partners are left off. A change or cut given only in a name is not applied to a line headed by its entry. A line that says so, or that is headed by a name, gives the form on record, which may keep a tag or linker. Residues count along the entry.
UniProt Q99523: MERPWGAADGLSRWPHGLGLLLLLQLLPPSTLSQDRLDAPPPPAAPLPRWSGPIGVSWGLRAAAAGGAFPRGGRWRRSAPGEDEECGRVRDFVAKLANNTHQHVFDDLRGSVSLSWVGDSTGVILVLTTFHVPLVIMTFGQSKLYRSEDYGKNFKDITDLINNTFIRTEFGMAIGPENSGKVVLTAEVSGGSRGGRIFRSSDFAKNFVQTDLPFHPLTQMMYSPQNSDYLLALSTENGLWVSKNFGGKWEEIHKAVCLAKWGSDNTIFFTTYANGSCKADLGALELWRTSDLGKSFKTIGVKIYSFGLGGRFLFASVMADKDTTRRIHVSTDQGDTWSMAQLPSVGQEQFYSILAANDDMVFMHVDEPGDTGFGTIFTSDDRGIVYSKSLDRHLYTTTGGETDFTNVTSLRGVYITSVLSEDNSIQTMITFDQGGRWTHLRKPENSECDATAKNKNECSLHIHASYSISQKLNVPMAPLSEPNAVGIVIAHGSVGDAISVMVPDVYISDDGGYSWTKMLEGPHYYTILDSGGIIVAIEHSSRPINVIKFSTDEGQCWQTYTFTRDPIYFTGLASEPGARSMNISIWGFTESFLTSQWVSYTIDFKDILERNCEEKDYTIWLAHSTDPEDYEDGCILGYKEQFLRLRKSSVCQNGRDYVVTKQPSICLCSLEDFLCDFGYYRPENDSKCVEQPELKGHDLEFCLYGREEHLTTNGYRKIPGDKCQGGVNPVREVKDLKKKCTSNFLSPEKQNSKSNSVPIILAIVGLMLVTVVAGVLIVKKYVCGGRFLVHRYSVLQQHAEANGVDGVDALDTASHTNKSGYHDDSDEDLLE
full-length human sortilin expressed in CHO cells: residues 78-831 of Q99523
cytoplasmic domain of human sortilin (K779-E831) in fusion with LexA: residues 779-831 of Q99523
sortilin-cd deletion mutant cd 1-27 (K779-D805): residues 779-805 of Q99523
UniProt Q13153: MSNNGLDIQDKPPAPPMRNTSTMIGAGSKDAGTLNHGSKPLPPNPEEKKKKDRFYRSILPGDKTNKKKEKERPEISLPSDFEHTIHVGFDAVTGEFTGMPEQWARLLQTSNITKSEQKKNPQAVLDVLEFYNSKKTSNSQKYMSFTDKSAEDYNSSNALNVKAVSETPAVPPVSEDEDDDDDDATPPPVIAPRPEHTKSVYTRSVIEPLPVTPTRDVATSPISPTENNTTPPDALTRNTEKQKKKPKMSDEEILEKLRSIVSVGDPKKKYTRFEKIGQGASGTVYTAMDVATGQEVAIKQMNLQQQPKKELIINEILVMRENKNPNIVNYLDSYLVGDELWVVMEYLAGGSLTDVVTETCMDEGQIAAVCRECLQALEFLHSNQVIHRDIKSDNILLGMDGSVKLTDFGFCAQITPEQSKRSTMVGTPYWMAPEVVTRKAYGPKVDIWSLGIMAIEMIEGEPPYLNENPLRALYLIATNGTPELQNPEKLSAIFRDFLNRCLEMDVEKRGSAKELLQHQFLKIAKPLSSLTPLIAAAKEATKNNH
GST-tagged PAK1 (Y270-H545): residues 270-545 of Q13153
PAK1-T271-H545 (yeast two-hybrid prey): residues 271-545 of Q13153
UniProt Q9UJY4, residues 1-167: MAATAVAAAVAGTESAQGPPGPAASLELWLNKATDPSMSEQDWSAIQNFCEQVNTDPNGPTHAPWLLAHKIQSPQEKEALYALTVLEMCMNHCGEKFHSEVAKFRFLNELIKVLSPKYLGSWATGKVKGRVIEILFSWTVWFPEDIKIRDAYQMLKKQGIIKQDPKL
UniProt O75914, residues 311-559: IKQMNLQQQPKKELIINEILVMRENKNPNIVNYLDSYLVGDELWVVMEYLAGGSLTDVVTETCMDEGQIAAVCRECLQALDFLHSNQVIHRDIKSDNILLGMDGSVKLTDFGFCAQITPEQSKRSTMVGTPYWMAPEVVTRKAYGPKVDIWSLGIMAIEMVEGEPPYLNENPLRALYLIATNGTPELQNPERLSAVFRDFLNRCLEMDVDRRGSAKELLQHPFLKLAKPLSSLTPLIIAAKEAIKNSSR

Substance	binding [1]	binding [2]	binding [3]	binding [4]	binding [5]	binding [6]
PAK1-T271-H545 (yeast two-hybrid prey) (from UniProt Q13153-1 271-545) (domain or fragment)	binds	binds	binds	binds		
PAK3-I317-R565 (yeast two-hybrid prey) (from UniProt O75914-4 317-565) (domain or fragment)	binds		binds	binds		
endogenous sortilin from human brain (from UniProt Q99523 78-831) (receptor)					binds	binds
full-length human sortilin expressed in CHO cells (from UniProt Q99523-1 78-831) (receptor)					binds	binds

From article PMC6965034
